According to PubChem BioAssay (Tox21):
“And” between values parts separate entries of the source, which are not always exact repeats. Equal entries are not always repeated. The inconclusive results got no clear call from the source; some entries with a clear call stand among them for comparison. A potency beside an inconclusive call is a rough fit, not a confirmed value. The source made the active and inactive calls. The call rests on the fitted dose curve; in most records, active means well fitted inhibition curve with a large enough effect in the signal ratio in the repeat runs (not every such curve was filed as active); inconclusive means weak or mixed curves, or effect the other way; inactive means no such curve, though single readings can be large or run the other way; the % refers to the signal ratio.

The chains behind the UniProt entries cited, without tags or fusion partners. Where a name states a change or a piece, a line headed by the entry shows the natural chain unless it says otherwise.
UniProt P11473: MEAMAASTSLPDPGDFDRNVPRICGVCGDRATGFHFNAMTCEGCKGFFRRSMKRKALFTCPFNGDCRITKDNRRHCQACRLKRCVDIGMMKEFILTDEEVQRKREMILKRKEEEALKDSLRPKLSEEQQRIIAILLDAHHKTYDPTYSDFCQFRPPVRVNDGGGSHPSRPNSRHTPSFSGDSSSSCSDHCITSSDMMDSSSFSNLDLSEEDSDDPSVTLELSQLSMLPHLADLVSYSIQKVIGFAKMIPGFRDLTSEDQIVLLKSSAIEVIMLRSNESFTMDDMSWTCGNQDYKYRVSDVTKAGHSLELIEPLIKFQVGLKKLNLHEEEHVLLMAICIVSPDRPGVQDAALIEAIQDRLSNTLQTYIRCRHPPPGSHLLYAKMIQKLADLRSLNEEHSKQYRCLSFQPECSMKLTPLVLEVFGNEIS

The compounds below were run against Vitamin D3 receptor (Homo sapiens) (UniProt P11473) (assay: qHTS assay to identify small molecule antagonists of the vitamin D receptor (VDR) signaling pathway (AID 743223)). Conditions: VDR-UAS-bla HEK293T, beta-lactamase FRET ratio, 16 h; activity change, negative = inhibition: at 61 µM (top of the series) unless noted.
From the text: U.S. Tox21 Program National Center for Advancing Translational Sciences [NCATS] NIH Chemical Genomics Center [NCGC] U.S. Environmental Protection Agency [EPA] National Institutes of Environmental Health Sciences [NIEHS] National Toxicology Program [NTP] U.S. Food and Drug Administration [FDA] Tox21 Assay Overview: The vitamin D receptor (VDR), a member of nuclear hormone receptor superfamily, plays a critical role in calcium homeostasis and bone metabolism. It is also involved in cell differentiation and growth, and thrombogenicity.
Tox21 Assay Protocol Summary: VDR-bla cells were dispensed at 2,000 cells/5 uL of assay medium per well into black wall/clear-bottom 1536-well plates using a Multidrop Combi (Thermo Fisher Scientific, Waltham, MA) dispenser. After the assay plates were incubated at a 37C and 5% CO2 for 4 h, 23 nL of compounds dissolved in DMSO, positive controls or DMSO only was transferred to the assay plate by a Pintool station (Kalypsys, San Diego, CA), followed by addition of 1 uL of 1alpha, 25-Dihydroxy Vitamin D3 (3 nM, final concentration in the wells) using a Bioraptr Flying Reagent Dispenser (FRD) workstation (Beckman Coulter, Indianapolis, IN). The plates were incubated at 37C and 5% CO2 for 16 h, and then 1 uL of LiveBLAzerTM B/G FRET substrate was added using a Bioraptr FRD. The plates were incubated at room temperature for 2 h and fluorescence intensity was measured by an Envision plate reader (PerkinElmer, Shelton, CT).
On the % scale 0 is the no-effect control and ±100 the full control effect; potency means the concentration at half of the fitted maximal effect.

| Compound | Potency | activity change, negative = inhibition |
| --- | --- | --- |
| C[C@@H](O[C@H]1OCCN(Cc2n[nH]c(=O)[nH]2)[C@H]1c1ccc(F)cc1)c1cc(C(F)(F)F)cc(C(F)(F)F)c1 | inconclusive: 26.8 µM [single point] |  |
| COC(=O)c1ccccc1 | inconclusive: 0.0012 µM [falling, full curve] |  |
| CC(C)(COC(=O)c1ccccc1)COC(=O)c1ccccc1 |  | inconclusive: -10.3% |
| OC1CCCC1 |  | inconclusive: -35.7% |
| CNC(=S)NN | active: 17.4 µM |  |
| CCCCCCCCCC(=O)N(C)C | inactive |  |
| Oc1ccc(-c2ccc(O)cc2)cc1 | inactive |  |
| Cc1ccc([N+](=O)[O-])c(N)c1 | inactive |  |
| CC(C)(C)CC(C)(C)c1ccc(O)c(-n2nc3ccccc3n2)c1 |  | inconclusive: -26.3% |
| Cc1[nH]nc2c1N=C(c1ccccc1Cl)c1cc([N+](=O)[O-])ccc1N2 |  | inconclusive: -44% |
| COC(=O)[C@H]1[C@H]2C[C@@H]3c4[nH]c5cc(OC)ccc5c4CCN3C[C@H]2C[C@@H](OC(=O)/C=C/c2ccc(O)c(OC)c2)[C@@H]1OC | inconclusive: 23.9 µM |  |
| CC(=O)N/N=C/c1ccc([N+](=O)[O-])o1 |  | inconclusive: 19.8% |
| CN1CCN(CCC(=O)N2c3ccccc3Sc3ccc(C(F)(F)F)cc32)CC1 | inconclusive: 13.4 µM [inhibitor, partial curve] |  |
| CNC[C@H](O)[C@@H](O)[C@H](O)[C@H](O)CO | inconclusive: 0.0022 µM [rising, full curve, poor fit] |  |
| CC/C=C\C/C=C\C/C=C\CCCCCCCC(=O)O |  | inconclusive: -7.72% |
| C#C[C@]1(O)CC[C@H]2[C@@H]3[C@H](C)CC4=C(CCC(=O)C4)[C@H]3CC[C@@]21C | inactive |  |
| CC(C)=CCC1C(=O)N(c2ccccc2)N(c2ccccc2)C1=O |  | inconclusive: -39.4% |

| Compound | Potency | activity change, negative = inhibition |
| --- | --- | --- |
| Clc1ccnc(Cl)n1 |  | inconclusive: 2% [at 78.8 µM] |
| O=C(O)Cc1ccccc1Nc1c(Cl)cccc1Cl | inconclusive: 21.3 µM [activator, partial curve, poor fit] | inconclusive: 11.6% |
| NC(=O)CC[C@@H]1NC(=O)[C@H](Cc2ccccc2)NC(=O)[C@H](Cc2ccc(O)cc2)NC(=O)CCSSC[C@@H](C(=O)N2CCC[C@H]2C(=O)N[C@@H](CCCN=C(N)N)C(=O)NCC(N)=O)NC(=O)[C@H](CC(N)=O)NC1=O |  | inconclusive: 34.2% |
| O=C1CC2(CCCC2)CC(=O)N1CCCCN1CCN(c2ncccn2)CC1 | inconclusive: 0.195 µM [fluorescent, full curve, poor fit] | inconclusive: 17.6% |
| CCCCCCC(O)CCCCCCCCCCC(=O)O (stereo not given) | inconclusive: 43.6 µM [fluorescent, partial curve, poor fit] | inconclusive: 10.1% |
| CN(C)c1ccc(C2(c3ccc(N(C)C)cc3)OC(=O)c3cc(N(C)C)ccc32)cc1 | inactive |  |
| O=C(O)Cn1c(=O)n(Cc2ccc(Br)cc2F)c(=O)c2ccc(Cl)cc21 |  | inconclusive: 11.2% and inconclusive: 17.6% |
| O=c1oc(=O)c2cc3c(=O)oc(=O)c3cc12 |  | inconclusive: 27.3% |
| CC(=O)Oc1ccc2c(c1)CC[C@@H]1[C@@H]2CC[C@]2(C)[C@@H](O)CC[C@@H]12 | inactive |  |
| N[C@@H](Cc1cc(I)c(Oc2cc(I)c(O)c(I)c2)c(I)c1)C(=O)O |  | inconclusive: 12% |
| O=c1c(-c2ccc(O)cc2)coc2cc(O)cc(O)c12 |  | inconclusive: -23.2% |
| Oc1ccc(C(c2ccc(O)cc2)C(Cl)(Cl)Cl)cc1 |  | inconclusive: -34.5% and inconclusive: -63.7% |
| O=C1OC[C@H](Cc2cccc(O)c2)[C@H]1Cc1cccc(O)c1 |  | inconclusive: -3.05% [at 28.5 µM] |
| CC1=CC(O)CC(C)(C)C1 (stereo not given) | inactive |  |
| CC(C)(C)C(=O)OCOC(=O)C1N2C(=O)CC2S(=O)(=O)C1(C)C (stereo not given) | inconclusive: 21.3 µM [partial curve] |  |
| CC(CO)(CO)C(=O)O | inactive |  |

Taken from the listing, 3 compounds:

| Compound | Potency | activity change, negative = inhibition |
| --- | --- | --- |
| O=C(O)Cn1c(=O)n(Cc2ccc(Br)cc2F)c(=O)c2ccc(Cl)cc21 |  | inconclusive: 11.2% and inconclusive: 17.6% |
| O=c1oc(=O)c2cc3c(=O)oc(=O)c3cc12 |  | inconclusive: 27.3% |
| CC(=O)Oc1ccc2c(c1)CC[C@@H]1[C@@H]2CC[C@]2(C)[C@@H](O)CC[C@@H]12 | inactive |  |

Same assay, conditions: VDR-UAS-bla HEK293T, beta-lactamase FRET ratio, 16 h; at 61 µM (top of the series)

| Compound | activity change, negative = inhibition |
| --- | --- |
| OC[C@@H](O)[C@@H](O)[C@H](O)[C@@H](O)CO | inconclusive: 15% |
| CC(C)(C)CC(C)(C)c1ccc(O)c(-n2nc3ccccc3n2)c1 | inactive: 0.593% |

Same assay, conditions: VDR-UAS-bla HEK293T, beta-lactamase FRET ratio, 16 h; at 78.8 µM (top of the series)

| Compound | activity change, negative = inhibition |
| --- | --- |
| OC[C@@H](O)[C@@H](O)[C@H](O)[C@@H](O)CO | inconclusive: 5.44% |
| CC(C)(C)CC(C)(C)c1ccc(O)c(-n2nc3ccccc3n2)c1 | inactive: 3.99% |
